From paper PMC8546589
Results are given in words; binding and its absence hold for the method and conditions named. Binding seen in cells or lysates may run through a third protein. A yes stands for co-enrichment or nearness to the bait. Other partners may have been found. Tags and fused reporters may be left off the sequences shown. One block for each molecule: values may come before it.

Key:
Assay in all cases: affinity purification with mass spectrometry; anti-c-Myc agarose IP from whole-cell lysate of E. histolytica lines overexpressing the Myc-tagged bait (EhAgo2-2 WT, its two mutants, EhRdRP1, EhRdRP2), 2 h at 4°C, six low-stringency washes; LC-MS/MS in triplicate; nonribosomal hits in at least 2 of 3 data sets, exclusive or ≥3-fold enriched against the Luc control
[1] = biological target: T1, Myc-EhRdRP2 (E. histolytica) (UniProt C4M631)
T1 sequence: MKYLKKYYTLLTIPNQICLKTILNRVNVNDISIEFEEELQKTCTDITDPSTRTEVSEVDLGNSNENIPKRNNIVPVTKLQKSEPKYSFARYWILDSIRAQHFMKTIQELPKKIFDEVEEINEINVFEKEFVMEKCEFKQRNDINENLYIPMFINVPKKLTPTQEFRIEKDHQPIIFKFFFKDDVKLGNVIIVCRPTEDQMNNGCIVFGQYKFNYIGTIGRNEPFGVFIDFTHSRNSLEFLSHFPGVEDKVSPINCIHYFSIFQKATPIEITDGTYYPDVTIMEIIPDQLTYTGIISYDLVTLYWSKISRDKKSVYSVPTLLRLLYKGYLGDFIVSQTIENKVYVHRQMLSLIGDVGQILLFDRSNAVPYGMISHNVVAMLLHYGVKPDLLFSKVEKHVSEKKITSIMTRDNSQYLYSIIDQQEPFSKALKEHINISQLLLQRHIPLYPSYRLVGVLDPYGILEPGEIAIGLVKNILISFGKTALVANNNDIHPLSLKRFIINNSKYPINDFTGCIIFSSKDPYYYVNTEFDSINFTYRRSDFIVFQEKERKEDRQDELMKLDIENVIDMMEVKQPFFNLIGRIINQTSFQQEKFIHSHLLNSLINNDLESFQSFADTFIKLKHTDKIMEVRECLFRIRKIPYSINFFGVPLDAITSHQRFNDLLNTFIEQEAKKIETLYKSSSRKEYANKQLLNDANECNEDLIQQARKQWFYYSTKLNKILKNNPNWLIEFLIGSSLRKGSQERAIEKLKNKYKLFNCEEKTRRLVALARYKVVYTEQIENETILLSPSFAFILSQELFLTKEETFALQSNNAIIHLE

[2] = biological target: T2, Myc-EhAgo2-2 (E. histolytica) (UniProt C4LVV2)
T2 sequence: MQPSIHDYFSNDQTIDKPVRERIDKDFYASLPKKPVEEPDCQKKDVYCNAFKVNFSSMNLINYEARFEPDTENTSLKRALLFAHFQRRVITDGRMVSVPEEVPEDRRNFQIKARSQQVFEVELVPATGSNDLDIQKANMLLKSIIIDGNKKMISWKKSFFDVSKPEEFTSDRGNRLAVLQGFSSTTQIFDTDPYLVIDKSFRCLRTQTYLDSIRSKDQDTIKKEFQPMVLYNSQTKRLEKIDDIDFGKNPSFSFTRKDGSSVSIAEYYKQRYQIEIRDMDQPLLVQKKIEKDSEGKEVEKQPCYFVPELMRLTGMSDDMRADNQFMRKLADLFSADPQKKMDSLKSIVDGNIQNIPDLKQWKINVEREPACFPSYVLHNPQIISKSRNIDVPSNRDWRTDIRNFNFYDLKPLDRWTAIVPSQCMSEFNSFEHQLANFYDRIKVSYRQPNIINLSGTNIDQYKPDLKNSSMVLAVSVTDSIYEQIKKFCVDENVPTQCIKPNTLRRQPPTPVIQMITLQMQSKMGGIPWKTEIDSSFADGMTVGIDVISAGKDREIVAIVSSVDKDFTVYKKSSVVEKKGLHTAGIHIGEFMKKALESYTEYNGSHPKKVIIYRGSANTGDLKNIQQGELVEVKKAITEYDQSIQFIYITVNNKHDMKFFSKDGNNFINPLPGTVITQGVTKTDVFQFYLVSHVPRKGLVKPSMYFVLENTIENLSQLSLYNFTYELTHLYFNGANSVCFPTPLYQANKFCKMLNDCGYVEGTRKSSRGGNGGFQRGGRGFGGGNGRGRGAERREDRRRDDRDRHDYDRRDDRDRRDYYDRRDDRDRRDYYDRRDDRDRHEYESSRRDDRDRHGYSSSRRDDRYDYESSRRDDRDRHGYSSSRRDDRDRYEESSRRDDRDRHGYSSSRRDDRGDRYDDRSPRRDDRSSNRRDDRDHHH

[3] = biological target: T3, Myc-EhRdRP1 (E. histolytica) (UniProt C4M6W7)
T3 sequence: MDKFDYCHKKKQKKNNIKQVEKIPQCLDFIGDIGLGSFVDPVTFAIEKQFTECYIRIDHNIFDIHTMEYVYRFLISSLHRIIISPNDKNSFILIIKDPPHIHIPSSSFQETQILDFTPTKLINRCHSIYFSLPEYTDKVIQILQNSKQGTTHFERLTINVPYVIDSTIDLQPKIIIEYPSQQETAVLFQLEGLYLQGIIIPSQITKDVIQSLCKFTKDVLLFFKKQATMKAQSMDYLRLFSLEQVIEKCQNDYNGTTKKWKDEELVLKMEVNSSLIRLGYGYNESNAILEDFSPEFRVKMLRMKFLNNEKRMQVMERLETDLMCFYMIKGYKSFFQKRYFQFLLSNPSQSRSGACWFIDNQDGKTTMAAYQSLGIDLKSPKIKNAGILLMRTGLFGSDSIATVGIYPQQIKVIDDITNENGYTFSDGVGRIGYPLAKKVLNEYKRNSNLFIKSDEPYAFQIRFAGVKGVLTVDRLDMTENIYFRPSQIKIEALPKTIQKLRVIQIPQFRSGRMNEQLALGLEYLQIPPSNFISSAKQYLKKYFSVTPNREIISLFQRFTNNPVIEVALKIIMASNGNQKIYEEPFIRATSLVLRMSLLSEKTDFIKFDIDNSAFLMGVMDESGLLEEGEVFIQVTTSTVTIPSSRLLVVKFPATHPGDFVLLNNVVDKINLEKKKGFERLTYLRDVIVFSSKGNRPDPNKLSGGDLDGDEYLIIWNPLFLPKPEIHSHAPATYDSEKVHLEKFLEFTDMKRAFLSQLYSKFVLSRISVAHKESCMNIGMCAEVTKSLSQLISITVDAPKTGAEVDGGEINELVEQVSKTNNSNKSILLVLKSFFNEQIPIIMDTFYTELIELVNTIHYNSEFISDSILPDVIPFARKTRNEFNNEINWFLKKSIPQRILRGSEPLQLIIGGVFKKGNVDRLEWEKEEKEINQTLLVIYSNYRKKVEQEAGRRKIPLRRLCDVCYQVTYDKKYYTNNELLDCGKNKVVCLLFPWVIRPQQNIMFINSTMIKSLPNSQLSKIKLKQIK

- binding [1]: binds
Molecule: EBP-2

- binding [1]: binds
Molecule: NBP-2

- binding [2]: binds
- binding [3]: binds
B1: RecQ helicase (enzyme, UniProt C4M4V5 1-1182)
chain: MGETITNLEEELNEVRKEQMKYQKNRMRGYGEKVRKQGIRYIIGEKMKIGIMEEFIENKKRTEDIIRKMEMIGCKKKEEKKEEKKEEKKKMNKNALLIEQVIQTTDIEEIKDKEEIKDKEEIKDKEEIKDKEEIGKESIEISDEFLQEILGEKEEREQHNTYENIDMNEELEDIKMDEEVKENKPNKEIEEVEEIEMSEENKNEEEDIKISLMEINEEEKDMINLVSEEKLIFEGTEQKEQEVISIEDEIGSVEEILEKMEEEEKEREKEIKELEGGDEQKEIEMLEQDEMFKYLSQRGKEELEHIKGYLQKRIELIEKEIEKDIEEGKDQEKDEKVEKKNKENEEMRKIELIIKKGKYYQEENNSKEEEIKEENNNNNNKEGVIEEEIKYKEISEGGKYYVWKLGEFLKRNPGAQKYKEKKDIRVNGIKKFASIDSDWEKQEFSWKENIKKCNNTVFGNDSFRPSQEAIINCVMSRNNALVLMPTGGGKSLCYQLPSYFIKGITLVVSPLVSLIQDQVSNLVETGMEAIAFYSGSSSEDAKQFYKESYQKEGKCTIKFVFVTPERITQSKSFKEALNRYYENNNFGMVVIDEAHCISQWGHDFRDSYQKLSVFSQEYPGIPILMLTATATERVKNDILLSLGINEAVVFSQSFNRKNLTYCVRPKTKGVIDEIEEMIKRKYKGQSGIIYCLSQKNTMDIAQELNKRGIKSKYYHAGMDTKERTTVQKEWCDGEFNVICATIAFGMGIDKPDVRFVIHHSLPKSLEGYYQESGRAGRDGEPADCILYYNYRDKYTYERFFEKDKENNGDLSHIQTARNNLNEVISYCENTVDCRRTLVLQYFGEVFNSKLCNRTCDNCYNPSPTEVIDMTELGKIAVEIVRAHQRITANMVIGIMRGTSTMGKKFGETSKGFKSAKGKTEQVMERFMKVMYLEKVLSEMLIINSHGSISVYLKEGPKCKELMEGKIKIKVKCKKGANQIVEINNGIKMSEYQNSLMDKLNELRDQIFEEVRKQPGKEQLLKHNLFGTRVLKKIAAVMPRNKQEFEQIAMKRLLKEKYAERFISVVNNFINQHSSNSLNTSSFNPIKRTNPIKVDFNRKSGIRDNSDESIFDGIDLDEFADDDNATSDNNLEMTNPTIPSKKSIKKSSKKSIKKSIKKSIKKSIKKASKKSTNSSSNGIQPML
